Reference: paper PMC6158172, “A bidentate Polycomb Repressive-Deubiquitinase complex is required for efficient activity on nucleosomes” (Nature Communications, 2018)
No constants are given. Whether binding was seen depends on the method and setting. Some results given as binding are weak or reduced against the parent protein; the word gives no strength.

By UniProt entry, the sequences of proteins in these tests, tags left out. Where a name states a change or a piece, a line headed by the entry shows the natural chain unless it says otherwise. Residues count along the entry.
UniProt Q92560: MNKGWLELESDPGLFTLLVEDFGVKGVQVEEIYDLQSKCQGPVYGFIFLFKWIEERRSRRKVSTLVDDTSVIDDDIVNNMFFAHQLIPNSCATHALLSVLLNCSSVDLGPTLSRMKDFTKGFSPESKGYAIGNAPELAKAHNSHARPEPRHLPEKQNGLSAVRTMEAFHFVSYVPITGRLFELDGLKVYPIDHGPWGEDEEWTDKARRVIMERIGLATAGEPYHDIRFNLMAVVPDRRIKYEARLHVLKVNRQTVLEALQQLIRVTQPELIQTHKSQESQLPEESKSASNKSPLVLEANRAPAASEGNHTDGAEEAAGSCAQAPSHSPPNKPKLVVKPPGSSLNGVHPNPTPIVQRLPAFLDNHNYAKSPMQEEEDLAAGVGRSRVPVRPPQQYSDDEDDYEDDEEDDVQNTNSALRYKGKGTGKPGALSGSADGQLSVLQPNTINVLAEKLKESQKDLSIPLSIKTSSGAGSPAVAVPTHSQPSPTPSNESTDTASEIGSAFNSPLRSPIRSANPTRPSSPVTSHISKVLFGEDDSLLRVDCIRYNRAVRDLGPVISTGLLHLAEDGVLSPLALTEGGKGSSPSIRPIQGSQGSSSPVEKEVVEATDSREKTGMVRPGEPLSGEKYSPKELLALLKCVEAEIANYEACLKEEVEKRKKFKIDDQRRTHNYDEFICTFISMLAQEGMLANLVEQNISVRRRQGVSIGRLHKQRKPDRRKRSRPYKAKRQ
BAP1^1–712 (wild type), as in the BAP1^1–712–ASXL1^247–366 complex: residues 1-712 of Q92560
UniProt Q8IXJ9, residues 247-366: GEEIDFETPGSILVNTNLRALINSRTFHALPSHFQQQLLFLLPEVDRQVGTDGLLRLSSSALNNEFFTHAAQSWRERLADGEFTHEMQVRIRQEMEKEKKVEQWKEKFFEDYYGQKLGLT

Experiments:
[1] = target: BAP1(N251R)^1–729, as in the BAP1(N251R)–ASXL1 complex (human) (UniProt Q92560); test: co-purification; co-expressed in insect cells (Tni or Sf9) from baculovirus; Ni-NTA by the His6 tag on Calypso or BAP1, elution with 500 mM imidazole, dialysis
[2] = target: BAP1^1–729 (wild type), as in the BAP1^1–729–ASXL1^247–366 complex (human) (UniProt Q92560); test: as above
[3] = target: BAP1^1–712 (wild type), as in the BAP1^1–712–ASXL1^247–366 complex (human) (UniProt Q92560); test: as above
[4] = target: BAP1(L635A)^1–729, as in the BAP1(L635A)–ASXL1 complex (human) (UniProt Q92560); test: as above
[5] = target: Calypso^43–404 (wild type), as in the Calypso^43–404–ASX^207–340 complex (Drosophila melanogaster) (UniProt Q7K5N4); test: AUC; sedimentation velocity, c(s) analysis at 1, 4 and 18 µM complex, 20 °C, 20 mM HEPES pH 7.8, 100 mM NaCl, 0.8 mM TCEP; 2:2 complex to 1:1 units; both purified

Q: Which results are given for “StrepII-ASXL1^247–366 (Deubad domain) (from UniProt Q8IXJ9 247-366) (domain or fragment)”?
A: binding [1]: binds; binding [2]: binds; binding [3]: binds; binding [4]: binds

B1: Calypso^43–404 (wild type), as in the Calypso^43–404–ASX^207–340 complex (enzyme, Drosophila melanogaster, UniProt Q7K5N4 43-404, looked up)
chain: ADGWLELESDPGLFTLLLKDFGCHDVQVEEVYDLQKPIESPYGFIFLFRWIEERRARRKIVETTAEIFVKDEEAISSIFFAQQVVPNSCATHALLSVLLNCNENNLQLGDTLSRLKTHTKGMSPENKGLAIGNTPELACAHNSHAMPQARRRLERTGAGVSSCRFTGEAFHFVSFVPINGQLFELDGLKPYPMNHGGWEDSEDWTDKFRRVMAERLGIATGEQDIRFNLMAVVPDRRIAITHKLKMLRTNQAIVSGTLQKLLKADEQGESGNGDSQRPDTPTTLLEPSAFTARDLQSLLKNLDTEIAINEQHLADENDRRHMFKVDASRRTHNYDKFICTFLSMLAHQGVLGELVSQHLLPS
notes: Calypso, deubiquitinase of the Drosophila PR-DUB, residues 43-404 (UCH domain, coiled-coil hairpin, ULD; lacks the C-terminal positively charged tail 405-471); Always handled together with ASX 207-340, with which it was co-expressed; two copies per 2:2 complex at high concentration; also called WT^(no tail); Calypso^(no tail); source: E. coli BL21 (DE3), co-expressed with ASX, purified …
Q: Which binding [5] does the source give for B1 here?
A: binds weakly
